Results from paper PMC10650578.
No constants are given. Whether binding was seen depends on the method and setting. In cells and extracts the contact can be indirect. Some binding calls cover weakened binding; strength is not graded here.

Chains of the proteins cited; added tags and fusions are not shown.
UniProt P49792: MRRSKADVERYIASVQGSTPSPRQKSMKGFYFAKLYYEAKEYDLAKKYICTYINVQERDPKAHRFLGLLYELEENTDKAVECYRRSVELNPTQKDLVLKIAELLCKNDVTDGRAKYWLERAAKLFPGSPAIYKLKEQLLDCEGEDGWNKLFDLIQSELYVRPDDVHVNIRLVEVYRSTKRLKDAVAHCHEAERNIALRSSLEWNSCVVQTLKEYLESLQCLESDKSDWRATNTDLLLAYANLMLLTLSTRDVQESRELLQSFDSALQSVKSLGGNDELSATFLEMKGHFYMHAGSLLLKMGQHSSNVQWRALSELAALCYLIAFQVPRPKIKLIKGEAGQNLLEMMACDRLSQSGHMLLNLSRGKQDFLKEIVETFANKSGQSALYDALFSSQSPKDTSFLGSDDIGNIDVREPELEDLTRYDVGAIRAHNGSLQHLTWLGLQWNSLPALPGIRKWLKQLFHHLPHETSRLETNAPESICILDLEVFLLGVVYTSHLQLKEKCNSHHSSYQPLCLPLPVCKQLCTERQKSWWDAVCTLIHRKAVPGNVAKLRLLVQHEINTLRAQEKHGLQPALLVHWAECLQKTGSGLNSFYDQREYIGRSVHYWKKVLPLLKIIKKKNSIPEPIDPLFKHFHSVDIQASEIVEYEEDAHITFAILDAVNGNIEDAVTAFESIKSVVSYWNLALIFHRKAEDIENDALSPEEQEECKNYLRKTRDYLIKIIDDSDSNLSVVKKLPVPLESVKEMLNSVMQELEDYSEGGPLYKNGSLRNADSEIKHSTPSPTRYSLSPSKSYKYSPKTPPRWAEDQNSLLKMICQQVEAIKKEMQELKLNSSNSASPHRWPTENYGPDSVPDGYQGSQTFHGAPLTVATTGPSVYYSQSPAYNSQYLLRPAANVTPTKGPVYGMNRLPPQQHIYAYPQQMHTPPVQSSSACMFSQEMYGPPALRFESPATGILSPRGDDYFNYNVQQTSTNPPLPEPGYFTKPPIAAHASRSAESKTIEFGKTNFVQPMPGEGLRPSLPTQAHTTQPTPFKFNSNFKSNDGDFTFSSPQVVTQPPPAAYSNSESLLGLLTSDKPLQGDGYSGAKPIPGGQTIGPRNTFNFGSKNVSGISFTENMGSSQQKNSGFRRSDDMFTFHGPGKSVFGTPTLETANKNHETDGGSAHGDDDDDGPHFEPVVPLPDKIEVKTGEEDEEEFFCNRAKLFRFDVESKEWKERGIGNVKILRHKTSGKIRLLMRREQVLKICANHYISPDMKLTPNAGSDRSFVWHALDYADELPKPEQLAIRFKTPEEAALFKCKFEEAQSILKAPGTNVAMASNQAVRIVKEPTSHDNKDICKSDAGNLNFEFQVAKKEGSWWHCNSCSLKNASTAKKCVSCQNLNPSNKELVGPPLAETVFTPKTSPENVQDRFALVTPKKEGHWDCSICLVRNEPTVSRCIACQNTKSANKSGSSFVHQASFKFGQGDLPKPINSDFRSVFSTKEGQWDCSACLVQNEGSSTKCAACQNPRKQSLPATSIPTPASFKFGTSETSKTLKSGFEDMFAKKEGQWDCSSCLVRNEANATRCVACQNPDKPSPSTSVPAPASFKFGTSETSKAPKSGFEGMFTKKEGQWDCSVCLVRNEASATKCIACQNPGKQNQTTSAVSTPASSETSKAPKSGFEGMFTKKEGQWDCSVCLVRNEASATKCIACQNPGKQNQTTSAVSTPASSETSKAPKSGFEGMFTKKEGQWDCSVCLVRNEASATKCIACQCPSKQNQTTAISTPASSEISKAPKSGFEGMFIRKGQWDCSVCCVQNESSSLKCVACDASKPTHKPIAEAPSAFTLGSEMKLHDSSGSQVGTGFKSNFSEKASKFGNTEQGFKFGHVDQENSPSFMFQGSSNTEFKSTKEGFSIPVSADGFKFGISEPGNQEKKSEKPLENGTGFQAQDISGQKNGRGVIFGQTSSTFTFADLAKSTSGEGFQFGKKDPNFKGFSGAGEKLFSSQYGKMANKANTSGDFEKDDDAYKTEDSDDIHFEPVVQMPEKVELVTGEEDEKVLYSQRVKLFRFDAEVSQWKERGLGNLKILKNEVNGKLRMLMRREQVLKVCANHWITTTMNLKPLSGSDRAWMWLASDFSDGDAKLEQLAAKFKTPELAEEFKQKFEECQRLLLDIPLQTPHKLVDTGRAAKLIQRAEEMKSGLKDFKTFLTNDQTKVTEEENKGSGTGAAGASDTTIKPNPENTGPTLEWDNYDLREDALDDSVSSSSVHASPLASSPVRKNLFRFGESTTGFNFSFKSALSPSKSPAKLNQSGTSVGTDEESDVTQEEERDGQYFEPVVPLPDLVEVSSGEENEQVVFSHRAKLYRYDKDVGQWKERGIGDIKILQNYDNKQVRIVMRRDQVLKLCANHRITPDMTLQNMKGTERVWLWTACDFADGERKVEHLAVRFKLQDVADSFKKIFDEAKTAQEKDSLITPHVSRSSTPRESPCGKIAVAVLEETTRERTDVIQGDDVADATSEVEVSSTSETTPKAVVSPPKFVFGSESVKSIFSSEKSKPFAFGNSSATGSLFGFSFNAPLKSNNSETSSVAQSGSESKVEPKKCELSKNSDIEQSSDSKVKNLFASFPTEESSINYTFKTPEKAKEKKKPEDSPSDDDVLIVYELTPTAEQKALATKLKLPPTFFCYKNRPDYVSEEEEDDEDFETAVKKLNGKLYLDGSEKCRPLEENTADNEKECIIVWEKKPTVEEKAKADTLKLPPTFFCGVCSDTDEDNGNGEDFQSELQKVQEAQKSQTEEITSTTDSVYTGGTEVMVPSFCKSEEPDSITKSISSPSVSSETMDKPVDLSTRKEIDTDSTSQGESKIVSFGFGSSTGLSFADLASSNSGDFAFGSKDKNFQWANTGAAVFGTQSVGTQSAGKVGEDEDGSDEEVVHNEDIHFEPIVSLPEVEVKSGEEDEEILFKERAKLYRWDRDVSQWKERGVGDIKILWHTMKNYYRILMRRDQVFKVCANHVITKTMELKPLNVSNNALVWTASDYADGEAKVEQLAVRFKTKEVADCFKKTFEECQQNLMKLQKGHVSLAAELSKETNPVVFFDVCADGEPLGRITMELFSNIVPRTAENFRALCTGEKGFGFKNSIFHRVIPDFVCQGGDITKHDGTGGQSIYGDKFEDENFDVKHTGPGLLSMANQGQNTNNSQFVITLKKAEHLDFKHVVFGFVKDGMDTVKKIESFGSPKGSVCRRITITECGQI

Assays:
[1] = target: RANBP2 (human (endogenous in HeLa)) (UniProt P49792); experiment: proximity ligation; intermolecular PLA (Duolink) in fixed HeLa cells, endogenous proteins, primary antibodies against the two proteins; PLA signals/cell counted in mitotic stages against interphase (rare before nuclear envelope breakdown, peak in metaphase)
[2] = target: T1, RANGAP1 (human (endogenous in HeLa)) (UniProt P46060); experiment: as above
T1 sequence: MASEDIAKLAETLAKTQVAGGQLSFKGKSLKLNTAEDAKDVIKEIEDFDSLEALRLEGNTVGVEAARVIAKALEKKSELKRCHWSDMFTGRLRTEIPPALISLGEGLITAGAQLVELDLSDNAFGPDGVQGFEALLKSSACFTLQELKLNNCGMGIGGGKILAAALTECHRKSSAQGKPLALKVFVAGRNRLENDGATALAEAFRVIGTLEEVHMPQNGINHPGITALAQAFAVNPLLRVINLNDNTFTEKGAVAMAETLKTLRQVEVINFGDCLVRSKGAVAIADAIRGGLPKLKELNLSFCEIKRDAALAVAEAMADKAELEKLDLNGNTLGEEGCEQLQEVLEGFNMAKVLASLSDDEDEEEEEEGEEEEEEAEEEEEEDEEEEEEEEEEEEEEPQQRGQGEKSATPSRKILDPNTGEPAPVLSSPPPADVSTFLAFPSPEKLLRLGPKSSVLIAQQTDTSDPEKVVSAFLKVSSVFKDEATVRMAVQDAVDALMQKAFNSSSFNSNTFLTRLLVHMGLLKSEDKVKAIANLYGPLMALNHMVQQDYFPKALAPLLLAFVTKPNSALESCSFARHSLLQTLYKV

binding [1]: binds
binding [2]: binds
B1: Nucleolar and Spindle-Associated Protein 1 (NuSAP1) (protein, UniProt Q9BXS6 1-441)
chain: MIIPSLEELDSLKYSDLQNLAKSLGLRANLRATKLLKALKGYIKHEARKGNENQDESQTSASSCDETEIQISNQEEAERQPLGHVTKTRRRCKTVRVDPDSQQNHSEIKISNPTEFQNHEKQESQDLRATAKVPSPPDEHQEAENAVSSGNRDSKVPSEGKKSLYTDESSKPGKNKRTAITTPNFKKLHEAHFKEMESIDQYIERKKKHFEEHNSMNELKQQPINKGGVRTPVPPRGRLSVASTPISQRRSQGRSCGPASQSTLGLKGSLKRSAISAAKTGVRFSAATKDNEHKRSLTKTPARKSAHVTVSGGTPKGEAVLGTHKLKTITGNSAAVITPFKLTTEATQTPVSNKKPVFDLKASLSRPLNYEPHKGKLKPWGQSKENNYLNQHVNRINFYKKTYKQPHLQTKEEQRKKREQERKEKKAKVLGMRRGLILAED
